Measured values reported in patent KR20230139570A.
These are yes or no findings as the source states them, for the method shown. Some entries that bind do so weakly or less than the wild type.

Sequences of proteins named here, by UniProt entry; tags and fusion partners are left off. Residues count along the entry.
UniProt Q08722, residues 19-139: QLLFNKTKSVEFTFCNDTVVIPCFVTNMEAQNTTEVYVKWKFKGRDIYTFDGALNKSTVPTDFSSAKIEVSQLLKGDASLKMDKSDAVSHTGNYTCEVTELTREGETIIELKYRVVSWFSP

Each binder was assayed against 인간 CD47 단백질 (Human CD47, SPR analyte) (human) (UniProt Q08722) (assay: SPR, Biacore 8K).

binding | Binder
binds | AHF16309 전장 항체 (full length antibody, IgG4) (antibody, V domains shown) VH: EVQLVQSGSELKKPGASVKVSCKASGYTFTSYWMHWMRQAPGQGLEWIGVIDPNDSYTSYNQGFTGRFVLSVDTSVSTAYLQISSLKAEDTAVYYCARGGKRMMDYWGQGTTVTVSS VL: DVVMTQSPLSLPVTLGQPASISCRSSQSLVHSNGNTYLNWFQQRPGQSPRLLIYKVSNRFPGVPDRFSGSGSGTDFTLKISRVEAEDVGVYYCSQSTHVPFTFGGGTKLEIKR
binds | AHF16310 전장 항체 (full length antibody, IgG4) (antibody, V domains shown) VH: EVQLVQSGSELKKPGASVKVSCKASGYTFTSYWMHWMRQAPGQGLEWIGVIDPNDSYTSYNQGFTGRFVLSVDTSVSTAYLQISSLKAEDTAVYYCARGGKRMMDYWGQGTTVTVSS VL: DVVMTQSPLSLPVTLGQPASISCRSSQSLVHSNGNTYLHWFQQRPGQSPRLLIYKVSNRFTGVPDRFSGSGSGTDFTLKISRVEAEDVGVYYCSQSTHVPFTFGGGTKLEIKR
binds | AHF16312 전장 항체 (full length antibody, IgG4) (antibody, V domains shown) VH: EVQLVQSGSELKKPGASVKVSCKASGYTFTSYWMHWMRQAPGQGLEWIGVIDPNDSYTSYNQGFTGRFVLSVDTSVSTAYLQISSLKAEDTAVYYCARGGKRIMDYWGQGTTVTVSS VL: DVVMTQSPLSLPVTLGQPASISCRSSQSLVHSNGNTYLNWFQQRPGQSPRLLIYKVSNRFTGVPDRFSGSGSGTDFTLKISRVEAEDVGVYYCSQSTHVPFTFGGGTKLEIKR
